Laboratory results: PubChem BioAssay AID1259254 (NCATS, 2017)
Purpose: 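Gene knock-downs that lead to re-replication, shown by excess G2 DNA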 (primary screen). Cell system: human HCT116 colorectal cancer cells. Reagent: single siRNA against human genes. Time to read-out: 3 days. Measurement: 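Imaged Hoechst DNA stain sorts each cell into a cycle phase by DNA amount; per plate, G2 fraction set to 0% for non-targeting and 100% for GMNN siRNA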. Reading the numbers: G2 robust z-score: higher = more G2 cells, more excess DNA replication. Call rule: 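Active siRNAs have a G2 robust z of 5 or more median absolute deviations over the median, which in these data means about 38% or higher of GMNN control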.
This is a random part of about 59,000 reagents tested. Of all reagents, about 1,550 (2.6%) were called active. 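G2 share is only a proxy for re-replication; each gene was hit by three separate siRNAs, and active genes were retested.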 Entries without a mark were called inactive. Reagents against one gene are numbered here. Further read-outs or replicates are left out here. Not given: the amount of reagent.

gene,reagent,G2 robust z-score
ERI2,1,0.267
ERI2,2,0.292
ERI2,3,-0.203
LINC01124,1,1.04
LINC01124,2,0.0973
LINC01124,3,-0.822
VPS37A,1,-0.624
VPS37A,2,1.16
VPS37A,3,-0.57
GGN,1,1.49
GGN,2,3.43
GGN,3,-0.443
SLC75A1,1,-0.555
SLC75A1,2,2.34
SLC75A1,3,0.112
DBNL,1,2.33
DBNL,2,-0.486
DBNL,3,-1.46
SERPINA3,1,-0.48
SERPINA3,2,3.15
SERPINA3,3,0.457
LZTS3,1,0.897
LZTS3,2,-0.0667
LZTS3,3,0.203
PPFIA2,1,0.0564
PPFIA2,2,0.82
PPFIA2,3,0.38
PCNA,1,0.0976
PCNA,2,-0.98
PCNA,3,1.1
OCM,1,-0.658
OCM,2,-1.2
OCM,3,-0.375
ALDH18A1,1,0.201
ALDH18A1,2,-1.2
ALDH18A1,3,-0.462
TMPRSS11GP,1,-1.03
TMPRSS11GP,2,1.77
TMPRSS11GP,3,2.68
C16orf89,1,-0.285
C16orf89,2,-1.01
C16orf89,3,0.561
S100G,1,-0.739
S100G,2,-0.786
S100G,3,-0.443
SMARCD1,1,3.1
SMARCD1,2,0.343
SMARCD1,3,3.12
BTBD19,1,-0.748
BTBD19,2,-0.0364
BTBD19,3,0.426
SP110,1,0.0671
SP110,2,-0.0685
SP110,3,-0.608
CDC6,1,2.47
CDC6,2,0.303
CDC6,3,3.62
TRAPPC14,1,-0.865
TRAPPC14,2,0.0581
TRAPPC14,3,0.872
PINK1,1,0.56
PINK1,2,-1
PINK1,3,-1.03
SDHA,1,-0.432
SDHA,2,-0.39
SDHA,3,-0.00984
KRT6B,1,-0.93
KRT6B,2,-1.04
KRT6B,3,-0.286
CNKSR1,1,1.45
CNKSR1,2,0.664
CNKSR1,3,-1.11
HSD17B14,1,0.149
HSD17B14,2,6.25 (active)
HSD17B14,3,1.65
RASEF,1,1.31
RASEF,2,-1.12
RASEF,3,-0.381
ING1,1,0.181
ING1,2,-0.676
ING1,3,2.44
OR4F29,1,-0.235
OR4F29,2,-0.0161
OR4F29,3,-0.401
DUOX2,1,0.707
DUOX2,2,3.63
DUOX2,3,-0.103

In a second layout: entries from further up
| gene | reagent | G2 robust z-score |
| --- | --- | --- |
| PINK1 | 3 | -1.03 |
| SDHA | 1 | -0.432 |
| SDHA | 2 | -0.39 |
| SDHA | 3 | -0.00984 |
| KRT6B | 1 | -0.93 |
| KRT6B | 2 | -1.04 |
| KRT6B | 3 | -0.286 |
| CNKSR1 | 1 | 1.45 |
